Experimental data reported in patent US9051579B2, “Herbicide-tolerant plants through bypassing metabolic pathway” (Bayer S.A.S., priority 2000, dated 2015).
Some entries share one result that the patent states for a list of compounds. At least one compound was matched to its structure with a doubt left.

Tested on: HPP oxidase (HPPO)
Experiment: HPP oxidase activity assay (colorimetric / HPLC), influence of added compounds
Assay type: biochemical, Arthrobacter globiformis
Conditions: crude extracts of A. globiformis; compound added to reaction medium

[Cl-].[K+] [KCl]
concentration necessary to observe a decrease in enzyme activity: greater than 750 mM
